Data on 2 substances can be found in patent publication US20030073656A1.

The chains behind the UniProt entries cited, without tags or fusion partners. Where a name states a change or a piece, a line headed by the entry shows the natural chain unless it says otherwise.
UniProt Q04912: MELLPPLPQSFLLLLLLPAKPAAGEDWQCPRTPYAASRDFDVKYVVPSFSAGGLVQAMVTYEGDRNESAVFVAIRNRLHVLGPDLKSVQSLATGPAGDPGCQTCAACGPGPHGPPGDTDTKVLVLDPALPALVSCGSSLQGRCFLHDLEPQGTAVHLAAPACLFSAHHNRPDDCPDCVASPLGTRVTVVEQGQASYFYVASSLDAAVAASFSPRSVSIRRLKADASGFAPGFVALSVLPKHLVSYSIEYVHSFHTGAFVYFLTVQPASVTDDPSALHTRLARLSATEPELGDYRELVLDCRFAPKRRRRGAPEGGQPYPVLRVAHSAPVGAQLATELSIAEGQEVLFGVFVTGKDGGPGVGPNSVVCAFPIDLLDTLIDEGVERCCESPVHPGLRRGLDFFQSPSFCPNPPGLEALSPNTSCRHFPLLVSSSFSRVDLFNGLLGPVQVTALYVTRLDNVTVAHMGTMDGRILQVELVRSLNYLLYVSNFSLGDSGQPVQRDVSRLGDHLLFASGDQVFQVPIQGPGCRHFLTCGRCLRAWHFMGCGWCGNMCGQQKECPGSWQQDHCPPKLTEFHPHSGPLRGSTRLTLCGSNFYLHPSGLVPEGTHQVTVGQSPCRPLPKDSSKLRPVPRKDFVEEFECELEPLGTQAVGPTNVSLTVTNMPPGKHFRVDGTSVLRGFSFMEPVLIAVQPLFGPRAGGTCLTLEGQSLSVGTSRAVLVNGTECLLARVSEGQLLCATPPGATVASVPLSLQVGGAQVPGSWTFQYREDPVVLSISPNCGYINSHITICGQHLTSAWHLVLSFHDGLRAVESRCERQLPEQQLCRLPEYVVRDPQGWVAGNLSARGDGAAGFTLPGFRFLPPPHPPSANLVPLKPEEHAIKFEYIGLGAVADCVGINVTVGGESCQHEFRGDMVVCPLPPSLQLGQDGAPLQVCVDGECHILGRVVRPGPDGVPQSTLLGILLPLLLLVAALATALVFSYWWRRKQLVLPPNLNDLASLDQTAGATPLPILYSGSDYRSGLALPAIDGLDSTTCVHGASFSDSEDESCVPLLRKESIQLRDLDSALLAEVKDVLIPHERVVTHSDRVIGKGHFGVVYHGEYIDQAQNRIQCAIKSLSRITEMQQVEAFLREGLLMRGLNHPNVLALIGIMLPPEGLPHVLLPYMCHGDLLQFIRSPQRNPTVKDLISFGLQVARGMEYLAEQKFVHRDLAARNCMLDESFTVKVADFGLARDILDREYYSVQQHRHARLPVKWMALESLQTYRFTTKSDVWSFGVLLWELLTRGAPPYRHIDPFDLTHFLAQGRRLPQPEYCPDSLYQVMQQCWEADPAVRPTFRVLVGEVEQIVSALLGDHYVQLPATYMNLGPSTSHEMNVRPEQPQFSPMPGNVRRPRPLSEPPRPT
UniProt P26927: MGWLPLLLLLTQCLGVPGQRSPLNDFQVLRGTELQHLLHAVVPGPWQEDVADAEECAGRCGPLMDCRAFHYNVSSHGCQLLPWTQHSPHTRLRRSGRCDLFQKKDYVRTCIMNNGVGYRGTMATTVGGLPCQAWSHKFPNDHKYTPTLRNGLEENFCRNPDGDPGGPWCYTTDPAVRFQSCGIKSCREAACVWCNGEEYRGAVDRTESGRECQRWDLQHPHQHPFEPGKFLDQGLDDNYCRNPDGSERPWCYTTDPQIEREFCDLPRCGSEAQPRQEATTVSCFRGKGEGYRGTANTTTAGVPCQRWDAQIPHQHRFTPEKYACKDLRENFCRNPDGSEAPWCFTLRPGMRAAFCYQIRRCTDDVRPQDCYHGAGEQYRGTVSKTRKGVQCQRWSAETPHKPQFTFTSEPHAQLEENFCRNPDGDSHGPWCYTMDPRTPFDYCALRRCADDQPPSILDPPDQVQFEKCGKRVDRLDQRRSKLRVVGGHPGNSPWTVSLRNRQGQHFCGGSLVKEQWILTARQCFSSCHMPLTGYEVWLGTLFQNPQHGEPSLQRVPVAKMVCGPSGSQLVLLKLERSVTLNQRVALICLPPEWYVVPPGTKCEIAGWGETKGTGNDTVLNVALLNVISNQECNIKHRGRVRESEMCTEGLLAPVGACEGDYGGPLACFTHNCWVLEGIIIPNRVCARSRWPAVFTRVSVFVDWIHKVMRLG

Assay [1] concerns the target RON receptor tyrosine kinase (Homo sapiens (Human)) (UniProt Q04912). As to the kind of experiment: RON receptor binding; assay not given.
For assay [2] the target is unchanged. The experiment in a line: direct ELISA, affinity-purified Ron coated on the plate, bound HGFL detected with anti-HGFL antibody. In general terms: ELISA stands for enzyme-linked immunosorbent assay.

No constants are given. Whether binding was seen depends on the method and setting. Some entries that bind do so weakly or less than the wild type.

For “isolated HGFL β chain (from UniProt P26927 484-711) (ligand)”, in assay [1], the binding entry is “binds”.
For “processed wild-type human hepatocyte growth factor-like protein (HGFL) (from UniProt P26927 19-483; P26927 484-711) (ligand)”, the binding result in assay [2] was “binds”.
